These are yes or no findings as the source states them, for the method shown. For some of these results: A result given as binding can be weak or reduced; the word gives no strength. Sequences can lack the tags named with a protein. For some of these results: Binding seen in cells or lysates may run through a third protein.
Experiments:
[1] = molecular target: GST-ARNO^271-399 (PH + CtH/PBR), purified from E. coli (mouse); test: pull-down; direct interaction assay: bacterially purified GST or GST-ARNO fragment as bait with purified His-tagged protein; in figure 3a with His-FE65 PTB2 or His-FE65 PTB2 R605A added; both purified
[2] = molecular target: GST-ARNO^255-386 (PH), mammalian expression (mouse); test: pull-down; mammalian GST fusion protein binding assay: cells co-transfected with FE65 and GST or GST-ARNO fragments; lysates incubated with glutathione Sepharose 4B
[3] = molecular target: GST-ARNO^377-399 (CtH/PBR), mammalian expression (mouse); test: as above
[4] = molecular target: GST-ARNO^255-399 (PH + CtH/PBR), mammalian expression (mouse); test: as above
[5] = molecular target: GST-ARNO^255-386 (PH), bacterially purified (mouse); test: pull-down; bacterially expressed GST or GST-tagged protein as bait, incubated with transfected cell lysate; FE65 detected by blot with anti-FE65 (E-20); only the target purified
[6] = molecular target: GST-ARNO (bacterially expressed) (mouse); test: as above
GFP-tagged ARNO (mouse) = test: co-IP; transfected cell lysates; ARNO immunoprecipitated by its tag (anti-GFP JL-8 or anti-FLAG M2); FE65 detected with anti-FE65 (E-20)
[7] = molecular target: Flag-tagged ARNO (p3XFLAG-2-mCytohesin-2) (mouse); test: as above
[8] = molecular target: GST-ARNO^255-386 (PH), bacterially purified (mouse); test: pull-down; direct interaction assay: bacterially purified GST or GST-ARNO fragment as bait with purified His-tagged protein; in figure 3a with His-FE65 PTB2 or His-FE65 PTB2 R605A added; both purified

| binding [1] | binding [2] | binding [3] | binding [4] | binding [5] | binding [6] | binding (GFP-tagged ARNO (mouse)) | binding [7] | binding [8] | Binder |
| --- | --- | --- | --- | --- | --- | --- | --- | --- | --- |
| binds |  |  |  |  |  |  |  |  | His-ARNO^1-270 (CC + Sec7 + Sec7-PH linker), purified from E. coli (domain or fragment, UniProt P63034 1-270) MEDGVYEPPDLTPEERMELENIRRRKQELLVEIQRLREELSEAMSEVEGLEANEGSKTLQRNRKMAMGRKKFNMDPKKGIQFLVEHELLQNTPEEIARFLYKGEGLNKTAIGDYLGEREELNLSVLHAFVDLHEFTDLNLVQALRQFLWSFRLPGEAQKIDRMMEAFAQRYCLCNPGVFQSTDTCYVLSFAVIMLNTSLHNPNVRDKPGLERFVAMNRGINEGGDLPEDLLRNLYDSIRNEPFKIPEDDGNDLTHTFFNPDREGWLLKLG |
|  | binds | no binding | binds | binds | binds | binds | binds |  | Myc-tagged FE65 (protein, UniProt O00213 1-710) MSVPSSLSQSAINANSHGGPALSLPLPLHAAHNQLLNAKLQATAVGPKDLRSAMGEGGGPEPGPANAKWLKEGQNQLRRAATAHRDQNRNVTLTLAEEASQEPEMAPLGPKGLIHLYSELELSAHNAANRGLRGPGLIISTQEQGPDEGEEKAAGEAEEEEEDDDDEEEEEDLSSPPGLPEPLESVEAPPRPQALTDGPREHSKSASLLFGMRNSAASDEDSSWATLSQGSPSYGSPEDTDSFWNPNAFETDSDLPAGWMRVQDTSGTYYWHIPTGTTQWEPPGRASPSQGSSPQEESQLTWTGFAHGEGFEDGEFWKDEPSDEAPMELGLKEPEEGTLTFPAQSLSPEPLPQEEEKLPPRNTNPGIKCFAVRSLGWVEMTEEELAPGRSSVAVNNCIRQLSYHKNNLHDPMSGGWGEGKDLLLQLEDETLKLVEPQSQALLHAQPIISIRVWGVGRDSGRERDFAYVARDKLTQMLKCHVFRCEAPAKNIATSLHEICSKIMAERRNARCLVNGLSLDHSKLVDVPFQVEFPAPKNELVQKFQVYYLGNVPVAKPVGVDVINGALESVLSSSSREQWTPSHVSVAPATLTILHQQTEAVLGECRVRFLSFLAVGRDVHTFAFIMAAGPASFCCHMFWCEPNAASLSEAVQAACMLRYQKCLDARSQASTSCLPAPPAESVARRVGWTVRRGVQSLWGSLKPKRLGAHTP |
| binds |  |  |  |  |  |  |  | binds | His-tagged FE65 PTB2 (domain or fragment, UniProt O00213 531-666) EFPAPKNELVQKFQVYYLGNVPVAKPVGVDVINGALESVLSSSSREQWTPSHVSVAPATLTILHQQTEAVLGECRVRFLSFLAVGRDVHTFAFIMAAGPASFCCHMFWCEPNAASLSEAVQAACMLRYQKCLDARS |

From PMC9516341
